Source: patent publication US7186701B2, “Dehydrating agent and method for dehydrating moist article using the agent and dehydrated article obtained by the method” (Kabushiki Kaisha Hayashibara Seibutsu Kagaku Kenkyujo, priority 2001, dated 2007)

Assay: Dehydration and pulverization of plain yogurt by non-reducing saccharide
Parameters: key: ◯: when the solids were easily pulverized; Δ: when the dehydration of the resulting mixtures was rather insufficient and the pulverization of solids was substantially difficult, though the resulting mixtures were solidified; when the dehydration of the resulting mixtures was insufficient and could not be pulverized by a pulverizer
Settings: 25° C., 24 hours
Experimental: The anhydrous crystalline cyclotetrasaccharide; crystalline cyclotetrasaccharide, monohydrate; and anhydrous amorphous cyclotetrasaccharide were respectively prepared by the methods in Examples A-1, A-2, and A-3. As the crystalline α,α-trehalose, dihydrate, a commercially available “TREHA®” commercialized by Hayashibara Shoji Inc., Okayama, Japan, was used. The anhydrous crystalline α,α-trehalose and the anhydrous amorphous α,α-trehalose used in this experiment were prepared from a commercialized crystalline α,α-trehalose, dihydrate, using the methods disclosed in Examples for Reference 1 and 3 in Japanese Patent Kokai No. 170,221/94. To four parts by weight of a plain yogurt with a moisture content of about 77% was added either of the above saccharides in an amount of 11 to 16 parts by weight. The resultant mixtures were respectively placed in vats, allowed to stand at 25° C. for 24 hours, and macroscopically observed their change on standing. The judgement was conducted in such a manner of sufficiently dehydrating the resulting mixtures to be solidified, subjected to a pulverizer for pulverization, and evaluated as “◯”, when the solids were easily pulverized; “Δ”, when the dehydration of the resulting mixtures was rather insufficient and the pulverization of solids was substantially difficult, though the resulting mixtures were solidified; and “x”, when the dehydration of the resulting mixtures was insufficient and could not be pulverized by a pulverizer.

OC[C@H]1O[C@@H]2OC[C@H]3O[C@H](O[C@@H]4[C@@H](O)[C@@H](OC[C@H]5O[C@H](O[C@H]([C@H]2O)[C@@H]1O)[C@H](O)[C@@H](O)[C@@H]5O)O[C@H](CO)[C@H]4O)[C@H](O)[C@@H](O)[C@@H]3O [Saccharide A, anhydrous crystalline cyclotetrasaccharide]
dehydration and pulverization of plain yogurt (12 parts by weight of saccharide to four parts by weight of plain yogurt (moisture about 77%)): Δ

OC[C@H]1O[C@H](O[C@H]2O[C@H](CO)[C@@H](O)[C@H](O)[C@H]2O)[C@H](O)[C@@H](O)[C@@H]1O [Saccharide E, anhydrous crystalline α,α-trehalose, reference compound]
dehydration and pulverization of plain yogurt (15 parts by weight of saccharide to four parts by weight of plain yogurt (moisture about 77%)): Δ

crystalline cyclotetrasaccharide, monohydrate [Saccharide B]
dehydration and pulverization of plain yogurt (14 parts by weight of saccharide to four parts by weight of plain yogurt (moisture about 77%)): Δ
